These are literature values, as cited in article PMC5026600 (ACS chemical biology, 2016).

The target in the series is EryK. Particulars: binding to EryK; cited from earlier work.

Turning to `Clc1ccccc1C(c1ccccc1)(c1ccccc1)n1ccnc1` [clotrimazole], the Kd is less than 0.01 µM.
